Assay results from the supplement of paper PMC8326762, “A Small Molecule Inhibitor of Pex3–Pex19 Interaction Disrupts Glycosome Biogenesis and Causes Lethality in Trypanosoma brucei” (Frontiers in Cell and Developmental Biology, 2021).
Structures can show the parent of a compound that is named as a salt. This is one part of the list. The data scatter; read single values as rough.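 Yeast growth was read as optical density at 600 nm. The two-hybrid strains grew without histidine, so growth needed the Pex3–Pex19 binding; a compound counted as trypanosome-selective if it cut growth of the trypanosome-pair strain by more than 65% and the human-pair strain by less than 65%.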

These compounds were tested on T. brucei Pex3-Pex19 interaction (yeast two-hybrid) (assay: growth inhibition of yeast two-hybrid strain reporting TbPex3-TbPex19 interaction, relative to DMSO; higher = stronger inhibition of T. brucei Pex3-Pex19 interaction / growth). Conditions: 100 µM; 24 h.
Work on `Cc1nc2ccccn2c(=O)c1CCN1CCC(C(=O)c2ccc(F)cc2)CC1` [Pirenperone] yielded a growth inhibition of 67.1%.
Work on `CCN(CC)CCNC(=O)c1cc(Cl)c(N)cc1OC` [Metoclopramide hydrochloride] yielded a growth inhibition of 66.1%.
For `Cc1ccc(-c2cc(C(F)(F)F)nn2-c2ccc(S(N)(=O)=O)cc2)cc1` [Celecoxib], the growth inhibition was 18%.
Work on `OC[C@H]1NC[C@H](O)[C@@H](O)[C@@H]1O` [1-Deoxynojirimycin hydrochloride] yielded a growth inhibition of 61.3%.
